Reference: patent US6992215B2, “Thiol-based NAALADase inhibitors” (Guildford Pharmaceuticals Inc., priority 2001, dated 2006)

Test system: chronic constrictive injury-induced rats
Test: Neuropathic pain in CCI model (sciatic nerve ligation, thermal hyperalgesia)
Format: in vivo
Procedure: Sciatic nerve ligation, consisting of 4 ligatures tied loosely around the sciatic nerve at 1 mm intervals proximal to the nerve trifurcation, was performed on rats. […] The rats were habituated to a Hargreaves apparatus. An infrared heat source was directed onto the dorsal surface of each rat's hindpaws and the time taken for the rat to withdraw its paws was noted. The difference in scores between the latency of the response for the paw on the operated side versus the paw on the unoperated control side was determined.
The rats were treated with either Compound 49 (10, 1 or 0.1 mg/kg) or a vehicle for 15 days after sciatic nerve ligation. Thermal pain responses were measured at days 0, 1, 5, 8, 11 and 15. The differences in scores for the rats treated with a vehicle and the rats treated with Compound 49 are graphically presented in FIGS. 13-15.
The rats were treated with either Compound 5 (50, 30, 10, 3, 1 or 0.3 mg/kg) or a vehicle for 12 (or 15) days after sciatic nerve ligation. Thermal pain responses were measured at days 0, 1, 5, 8 and 12 (and 15). The differences in scores for the rats treated with a vehicle and the rats treated with Compound 5 are graphically presented in FIGS. 17-22.
The rats received either Compound C (50 mg/kg i.p. daily) or a vehicle starting 10 days post surgery. […] Normal (unoperated) rats had approximately equal latencies for both paws. […]

Row | Compound | withdrawal latency on the unoperated (sham) side (10, 30 or 50 mg/kg, FIG. 23) | withdrawal latency on the unoperated (sham) side (10, 1 or 0.1 mg/kg, FIG. 16)
1 | O=C(O)c1cccc(CC(CCCS)C(=O)O)c1 (stereo not drawn) [Compound 5, 3-carboxy-alpha-(3-mercaptopropyl)-benzenepropanoic acid] | approximately equal withdrawal latencies | –
2 | CC(C)(C)c1cc(CC(CCCS)C(=O)O)cc(C(=O)O)c1 (stereo not drawn) [Compound 49, 3-carboxy-5-(1,1-dimethylethyl)-alpha-(3-mercaptopropyl)-benzenepropanoic acid] | – | approximately equal withdrawal latencies
